Measured values published in patent US20120264784A1, “METHODS OF TREATING ELEVATIONS IN MTOR SIGNALING” (priority 2009, published 2012).
For at least one compound, name, drawing or mass did not settle the structure.

What was measured:
Tsc2^+/− mice = conditions: Ehninger et al., Nat. Med. 14: 843-848 (2008); cited from earlier work
[1] = system: area CA1 of hippocampal slices; test: DHPG induced mGluR-LTD, field EPSP recordings in acute hippocampal slices; conditions: slices from Tsc2^+/− mice
Experimental: Acute hippocampal slices were prepared from P25-30 animals in ice-cold dissection buffer containing (in mM): NaCl 87, Sucrose 75, KCl 2.5, NaH2PO4 1.25, NaHCO3 25, CaCl2 0.5, MgSO4 7, Ascorbic acid 1.3, and D-glucose 10 (saturated with 95% O2/5% CO2). Immediately following slicing the CA3 region was removed. Slices were recovered in artificial cerebrospinal fluid (ACSF) containing (in mM): NaCl 124, KCl 5, NaH2PO4 1.23, NaHCO3 26, CaCl2 2, MgCl2 1 and D-glucose 10 (saturated with 95% O2/5% CO2) at 32.5° C. for about >3 hours prior to recording.
Field recordings were performed in a submersion chamber, perfused with ACSF (about 2-3 ml/min) at 30° C. Field EPSPs (fEPSPs) were recorded in CA1 stratum radiatum with extracellular electrodes filled with ACSF. Baseline responses were evoked by stimulation of the Schaffer collaterals at 0.033 Hz with a 2-contact cluster electrode (FHC) using about a 0.2 ms stimulus yielding about 40-60% of the maximal response. fEPSP recordings were filtered at about 0.1 Hz-1 kHz, digitized at 10 kHz, and analyzed using pClamp9 (Axon Instruments). The initial slope of the response was used to assess changes in synaptic strength. Data were normalized to the baseline response and are presented as group means±SEM. LTD was measured by comparing the average response about 55-60 minutes post DHPG application to the average of the last 5 minutes of baseline. […]

SMILES: CO[C@H]1C[C@@H]2CC[C@@H](C)[C@@](O)(O2)C(=O)C(=O)N2CCCC[C@H]2C(=O)O[C@H]([C@H](C)C[C@@H]2CC[C@@H](O)[C@H](OC)C2)CC(=O)[C@H](C)/C=C(\C)[C@@H](O)[C@@H](OC)C(=O)[C@H](C)C[C@H](C)/C=C/C=C/C=C/1C [RAP, rapamycin]
- effect on cognitive impairments (in words) (Tsc2^+/− mice): improved
- effect on DHPG induced LTD (in words) [1]: normalized LTD to the WT level
- effect on DHPG induced LTD in the presence of cycloheximide (in words) ([1]; with cycloheximide): eliminated in the presence of cycloheximide
